These are yes or no findings as the source states them, for the method shown.
What was measured:
[1] = target: human NLRP1(227–990), NACHT-LRR fragment (human) (UniProt Q9C000); assay: SEC; Superdex S200 XK16/60 column; single peak with an apparent molecular weight between 44 and 158 kDa; 25 mM MES pH 6.0, 200 mM NaCl, 5 mM MgCl2, 2 mM DTT; both purified
[2] = target: human NLRP1(227–990), NACHT-LRR fragment (human) (UniProt Q9C000); assay: SEC; Superose 6 10/300 column; protein 0.5 mg/mL alone, with 0.2 mg/mL MDP and 1 mM ATP, or with MDP and 1 mM ATPγS; incubated at room temperature for about 3–4 hours before loading; both purified
[3] = target: human NLRP1(227–990), NACHT-LRR fragment (human) (UniProt Q9C000); assay: SEC-SAXS; in-line 2.4 mL Superdex S200 column, beamline B21 at Diamond; samples at 2 mg/mL and 6 mg/mL; 25 mM MES pH 6.0, 500 mM NaCl, 5 mM MgSO4, 1 mM TCEP; 25°C; molecular weight derived from SAXS by three methods; both purified

- binding [1]: no binding
- binding [2]: no binding (tested: 0.5 mg/mL)
- binding [3]: no binding (tested: 6 mg/mL)
B1: human NLRP1(227–990), NACHT-LRR fragment (domain or fragment, UniProt Q9C000 227-990)
chain: SEKGRPPWAAVVGTPPQAHTSLQPHHHPWEPSVRESLCSTWPWKNEDFNQKFTQLLLLQRPHPRSQDPLVKRSWPDYVEENRGHLIEIRDLFGPGLDTQEPRIVILQGAAGIGKSTLARQVKEAWGRGQLYGDRFQHVFYFSCRELAQSKVVSLAELIGKDGTATPAPIRQILSRPERLLFILDGVDEPGWVLQEPSSELCLHWSQPQPADALLGSLLGKTILPEASFLITARTTALQNLIPSLEQARWVEVLGFSESSRKEYFYRYFTDERQAIRAFRLVKSNKELWALCLVPWVSWLACTCLMQQMKRKEKLTLTSKTTTTLCLHYLAQALQAQPLGPQLRDLCSLAAEGIWQKKTLFSPDDLRKHGLDGAIISTFLKMGILQEHPIPLSYSFIHLCFQEFFAAMSYVLEDEKGRGKHSNCIIDLEKTLEAYGIHGLFGASTTRFLLGLLSDEGEREMENIFHCRLSQGRNLMQWVPSLQLLLQPHSLESLHCLYETRNKTFLTQVMAHFEEMGMCVETDMELLVCTFCIKFSRHVKKLQLIEGRQHRSTWSPTMVVLFRWVPVTDAYWQILFSVLKVTRNLKELDLSGNSLSHSAVKSLCKTLRRPRCLLETLRLAGCGLTAEDCKDLAFGLRANQTLTELDLSFNVLTDAGAKHLCQRLRQPSCKLQRLQLVSCGLTSDCCQDLASVLSASPSLKELDLQQNNLDDVGVRLLCEGLRHPACKLIRLGLDQTTLSDEMRQELRALEQEKPQLLIFSRRKPS

— article PMC5058472
